Measurements taken from patent US10450346B2, “Immunotherapy against several tumors of the blood, in particular chronic lymphoid leukemia (CLL)” (Immatics biotechnologies GmbH, priority 2014, dated 2019).

B1: cyclin-dependent kinase 14 (protein, UniProt O94921 1-469, looked up)
Cyclin-dependent kinase 14: MCDLIEPQPAEKIGKMKKLRRTLSESFSRIALKKDDTTFDEICVTKMSTRNCQGMDSVIKPLDTIPEDKKVRVQRTQSTFDPFEKPANQVKRVHSENNACINFKTSSTGKESPKVRRHSSPSSPTSPKFGKADSYEKLEKLGEGSYATVYKGKSKVNGKLVALKVIRLQEEEGTPFTAIREASLLKGLKHANIVLLHDIIHTKETLTLVFEYVHTDLCQYMDKHPGGLHPDNVKLFLFQLLRGLSYIHQRYILHRDLKPQNLLISDTGELKLADFGLARAKSVPSHTYSNEVVTLWYRPPDVLLGSTEYSTCLDMWGVGCIFVEMIQGVAAFPGMKDIQDQLERIFLVLGTPNEDTWPGVHSLPHFKPERFTLYSSKNLRQAWNKLSYVNHAEDLASKLLQCSPKNRLSAQAALSHEYFSDLPPRLWELTDMSSIFTVPNVRLQPEAGESMRAFGKNNSYGKSLSNSKH
notes: LiTAA source protein
B2: elongator acetyltransferase complex subunit 3 (protein, UniProt Q9H9T3 1-547, looked up)
Elongator complex protein 3: MRQKRKGDLSPAELMMLTIGDVIKQLIEAHEQGKDIDLNKVKTKTAAKYGLSAQPRLVDIIAAVPPQYRKVLMPKLKAKPIRTASGIAVVAVMCKPHRCPHISFTGNICVYCPGGPDSDFEYSTQSYTGYEPTSMRAIRARYDPFLQTRHRIEQLKQLGHSVDKVEFIVMGGTFMALPEEYRDYFIRNLHDALSGHTSNNIYEAVKYSERSLTKCIGITIETRPDYCMKRHLSDMLTYGCTRLEIGVQSVYEDVARDTNRGHTVKAVCESFHLAKDSGFKVVAHMMPDLPNVGLERDIEQFTEFFENPAFRPDGLKLYPTLVIRGTGLYELWKSGRYKSYSPSDLVELVARILALVPPWTRVYRVQRDIPMPLVSSGVEHGNLRELALARMKDLGIQCRDVRTREVGIQEIHHKVRPYQVELVRRDYVANGGWETFLSYEDPDQDILIGLLRLRKCSEETFRFELGGGVSIVRELHVYGSVVPVSSRDPTKFQHQGFGMLLMEEAERIAREEHGSGKIAVISGVGTRNYYRKIGYRLQGPYMVKMLK
notes: LiTAA source protein
B3: endoplasmic reticulum protein 44 (protein, UniProt Q9BS26 30-406, looked up)
Endoplasmic reticulum …: EITSLDTENIDEILNNADVALVNFYADWCRFSQMLHPIFEEASDVIKEEFPNENQVVFARVDCDQHSDIAQRYRISKYPTLKLFRNGMMMKREYRGQRSVKALADYIRQQKSDPIQEIRDLAEITTLDRSKRNIIGYFEQKDSDNYRVFERVANILHDDCAFLSAFGDVSKPERYSGDNIIYKPPGHSAPDMVYLGAMTNFDVTYNWIQDKCVPLVREITFENGEELTEEGLPFLILFHMKEDTESLEIFQNEVARQLISEKGTINFLHADCDKFRHPLLHIQKTPADCPVIAIDSFRHMYVFGDFKDVLIPGKLKQFVFDLHSGKLHREFHHGPDPTDTAPGEQAQDVASSPPESSFQKLAPSEYRYTLLRDRDEL
notes: LiTAA source protein
B4: NLR family, pyrin domain containing 2 (protein, UniProt Q9NX02 1-1062, looked up)
NACHT, LRR and PYD …: MVSSAQMGFNLQALLEQLSQDELSKFKYLITTFSLAHELQKIPHKEVDKADGKQLVEILTTHCDSYWVEMASLQVFEKMHRMDLSERAKDEVREAALKSFNKRKPLSLGITRKERPPLDVDEMLERFKTEAQAFTETKGNVICLGKEVFKGKKPDKDNRCRYILKTKFREMWKSWPGDSKEVQVMAERYKMLIPFSNPRVLPGPFSYTVVLYGPAGLGKTTLAQKLMLDWAEDNLIHKFKYAFYLSCRELSRLGPCSFAELVFRDWPELQDDIPHILAQARKILFVIDGFDELGAAPGALIEDICGDWEKKKPVPVLLGSLLNRVMLPKAALLVTTRPRALRDLRILAEEPIYIRVEGFLEEDRRAYFLRHFGDEDQAMRAFELMRSNAALFQLGSAPAVCWIVCTTLKLQMEKGEDPVPTCLTRTGLFLRFLCSRFPQGAQLRGALRTLSLLAAQGLWAQTSVLHREDLERLGVQESDLRLFLDGDILRQDRVSKGCYSFIHLSFQQFLTALFYTLEKEEEEDRDGHTWDIGDVQKLLSGVERLRNPDLIQAGYYSFGLANEKRAKELEATFGCRMSPDIKQELLRCDISCKGGHSTVTDLQELLGCLYESQEEELVKEVMAQFKEISLHLNAVDVVPSSFCVKHCRNLQKMSLQVIKENLPENVTASESDAEVERSQDDQHMLPFWTDLCSIFGSNKDLMGLAINDSFLSASLVRILCEQIASDTCHLQRVVFKNISPADAHRNLCLALRGHKTVTYLTLQGNDQDDMFPALCEVLRHPECNLRYLGLVSCSATTQQWADLSLALEVNQSLTCVNLSDNELLDEGAKLLYTTLRHPKCFLQRLSLENCHLTEANCKDLAAVLVVSRELTHLCLAKNPIGNTGVKFLCEGLRYPECKLQTLVLWNCDITSDGCCDLTKLLQEKSSLLCLDLGLNHIGVKGMKFLCEALRKPLCNLRCLWLWGCSIPPFSCEDLCSALSCNQSLVTLDLGQNPLGSSGVKMLFETLTCSSGTLRTLRLKIDDFNDELNKLLEEIEEKNPQLIIDTEKHHPWAERPSSHDFMI
notes: LiTAA source protein
B5: ribonucleotide reductase M2 B (TP53 inducible) (protein, UniProt Q7LG56 1-351, looked up)
Ribonucleoside-diphosphate …: MGDPERPEAAGLDQDERSSSDTNESEIKSNEEPLLRKSSRRFVIFPIQYPDIWKMYKQAQASFWTAEEVDLSKDLPHWNKLKADEKYFISHILAFFAASDGIVNENLVERFSQEVQVPEARCFYGFQILIENVHSEMYSLLIDTYIRDPKKREFLFNAIETMPYVKKKADWALRWIADRKSTFGERVVAFAAVEGVFFSGSFAAIFWLKKRGLMPGLTFSNELISRDEGLHCDFACLMFQYLVNKPSEERVREIIVDAVKIEQEFLTEALPVGLIGMNCILMKQYIEFVADRLLVELGFSKVFQAENPFDFMENISLEGKTNFFEKRVSEYQRFAVMAETTDNVFTLDADF
notes: LiTAA source protein
B6: hematopoietic SH2 domain containing (protein, UniProt Q96JZ2 1-352, looked up)
Hematopoietic SH2 …: MTEAGKLPLPLPPRLDWFVHTQMGQLAQDGVPEWFHGAISREDAENLLESQPLGSFLIRVSHSHVGYTLSYKAQSSCCHFMVKLLDDGTFMIPGEKVAHTSLDALVTFHQQKPIEPRRELLTQPCRQKDPANVDYEDLFLYSNAVAEEAACPVSAPEEASPKPVLCHQSKERKPSAEMNRITTKEATSSCPPKSPLGETRQKLWRSLKMLPERGQRVRQQLKSHLATVNLSSLLDVRRSTVISGPGTGKGSQDHSGDPTSGDRGYTDPCVATSLKSPSQPQAPKDRKVPTRKAERSVSCIEVTPGDRSWHQMVVRALSSQESKPEHQGLAEPENDQLPEEYQQPPPFAPGYC
notes: LiTAA source protein
B7: DEAD (Asp-Glu-Ala-Asp) box polypeptide 46 (protein, UniProt Q7L014 2-1031, looked up)
Probable ATP-dependent RNA …: GRESRHYRKRSASRGRSGSRSRSRSPSDKRSKRGDDRRSRSRDRDRRRERSRSRDKRRSRSRDRKRLRRSRSRERDRSRERRRSRSRDRRRSRSRSRGRRSRSSSPGNKSKKTENRSRSKEKTDGGESSKEKKKDKDDKEDEKEKDAGNFDQNKLEEEMRKRKERVEKWREEQRKKAMENIGELKKEIEEMKQGKKWSLEDDDDDEDDPAEAEKEGNEMEGEELDPLDAYMEEVKEEVKKFNMRSVKGGGGNEKKSGPTVTKVVTVVTTKKAVVDSDKKKGELMENDQDAMEYSSEEEEVDLQTALTGYQTKQRKLLEPVDHGKIEYEPFRKNFYVEVPELAKMSQEEVNVFRLEMEGITVKGKGCPKPIKSWVQCGISMKILNSLKKHGYEKPTPIQTQAIPAIMSGRDLIGIAKTGSGKTIAFLLPMFRHIMDQRSLEEGEGPIAVIMTPTRELALQITKECKKFSKTLGLRVVCVYGGTGISEQIAELKRGAEIIVCTPGRMIDMLAANSGRVTNLRRVTYVVLDEADRMFDMGFEPQVMRIVDNVRPDRQTVMFSATFPRAMEALARRILSKPIEVQVGGRSVVCSDVEQQVIVIEEEKKFLKLLELLGHYQESGSVIIFVDKQEHADGLLKDLMRASYPCMSLHGGIDQYDRDSIINDFKNGTCKLLVATSVAARGLDVKHLILVVNYSCPNHYEDYVHRAGRTGRAGNKGYAYTFITEDQARYAGDIIKALELSGTAVPPDLEKLWSDFKDQQKAEGKIIKKSSGFSGKGFKFDETEQALANERKKLQKAALGLQDSDDEDAAVDIDEQIESMFNSKKRVKDMAAPGTSSVPAPTAGNAEKLEIAKRLALRINAQKNLGIESQDVMQQATNAILRGGTILAPTVSAKTIAEQLAEKINAKLNYVPLEKQEEERQDGGQNESFKRYEEELEINDFPQTARWKVTSKEALQRISEYSEAAITIRGTYFPPGKEPKEGERKIYLAIESANELAVQKAKAEITRLIKEELIRLQNSYQPTNKGRYKVL
notes: LiTAA source protein
B8: zinc finger CCCH-type containing 12D (protein, UniProt A2A288 1-527, looked up)
Probable ribonuclease ZC3H12D: MEHPSKMEFFQKLGYDREDVLRVLGKLGEGALVNDVLQELIRTGSRPGALEHPAAPRLVPRGSCGVPDSAQRGPGTALEEDFRTLASSLRPIVIDGSNVAMSHGNKETFSCRGIKLAVDWFRDRGHTYIKVFVPSWRKDPPRADTPIREQHVLAELERQAVLVYTPSRKVHGKRLVCYDDRYIVKVAYEQDGVIVSNDNYRDLQSENPEWKWFIEQRLLMFSFVNDRFMPPDDPLGRHGPSLSNFLSRKPKPPEPSWQHCPYGKKCTYGIKCKFYHPERPHHAQLAVADELRAKTGARPGAGAEEQRPPRAPGGSAGARAAPREPFAHSLPPARGSPDLAALRGSFSRLAFSDDLGPLGPPLPVPACSLTPRLGGPDWVSAGGRVPGPLSLPSPESQFSPGDLPPPPGLQLQPRGEHRPRDLHGDLLSPRRPPDDPWARPPRSDRFPGRSVWAEPAWGDGATGGLSVYATEDDEGDARARARIALYSVFPRDQVDRVMAAFPELSDLARLILLVQRCQSAGAPLGKP
notes: LiTAA source protein
B9: methyltransferase like 7A (protein, UniProt Q9H8H3 30-244, looked up)
Thiol S-methyltransferase …: WICKKWFPYFLVRFTVIYNEQMASKKRELFSNLQEFAGPSGKLSLLEVGCGTGANFKFYPPGCRVTCIDPNPNFEKFLIKSIAENRHLQFERFVVAAGENMHQVADGSVDVVVCTLVLCSVKNQERILREVCRVLRPGGAFYFMEHVAAECSTWNYFWQQVLDPAWHLLFDGCNLTRESWKALERASFSKLKLQHIQAPLSWELVRPHIYGYAVK
notes: LiTAA source protein

tested on: primary CLL samples (PBMC from CLL patients), HLA class I ligands; test: HLA class I ligandome analysis by LC-MS/MS (frequency of HLA restricted presentation); set-up: species or system human; settings: CLL patient HLA class I ligandomes (n = 30)

Row | Molecule | Number of positive CLLs
1 | B1 | 12
2 | B2 | 7
3 | B3 | 7
4 | B4 | 6
5 | B5 | 7
6 | B6 | 7
7 | B7 | 7
8 | B8 | 6
9 | B9 | 7

same assay, conditions: source protein (LiTAA) representation in CLL patient HLA class I ligandomes (n = 30)

Row | Molecule | Number of positive CLLs (frequency [%]) [%]
10 | B1 | 40.0
11 | B2 | 23.3
12 | B3 | 23.3
13 | B4 | 20.0
14 | B5 | 23.3
15 | B6 | 23.3
16 | B7 | 23.3
17 | B8 | 20.0
18 | B9 | 23.3
